Test system: RNases in frozen mouse liver tissue sections
Assay: Isolation of intact RNA from fixed frozen tissue sections

For `Cc1cc(-c2ccc(/N=N/c3c(N)ccc4cc(S(=O)(=O)O)ccc34)c(C)c2)ccc1/N=N/c1c(N)ccc2cc(S(=O)(=O)O)ccc12` [Benzopurpurin B, 3,3′-di-methylbiphenyl-4,4′-bis(2-amino-naphthylazo-6-sulfo-nate)], the “isolation of intact total RNA” value (inhibitor in the acetone fixative (2 mM Benzopurpurin B)) was “absolutely required” and the “incubation time without a significant loss of ribosomal RNA integrity” value (inhibitor incorporated into the 1×PBS solution) was “up to 20 min”.
